Measured values taken from doi:10.1101/2025.06.23.660276.

Protein sequences, listed by entry. Tags and fused reporters are not part of them.
UniProt A0A1D8PNT2: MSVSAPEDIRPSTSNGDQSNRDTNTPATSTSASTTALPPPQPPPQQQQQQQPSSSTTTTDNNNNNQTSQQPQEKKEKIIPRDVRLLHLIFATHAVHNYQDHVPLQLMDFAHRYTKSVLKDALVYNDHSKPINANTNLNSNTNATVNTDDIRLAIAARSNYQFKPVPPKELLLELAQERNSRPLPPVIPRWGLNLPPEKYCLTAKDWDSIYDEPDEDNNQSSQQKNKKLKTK
UniProt A0A1D8PSN1: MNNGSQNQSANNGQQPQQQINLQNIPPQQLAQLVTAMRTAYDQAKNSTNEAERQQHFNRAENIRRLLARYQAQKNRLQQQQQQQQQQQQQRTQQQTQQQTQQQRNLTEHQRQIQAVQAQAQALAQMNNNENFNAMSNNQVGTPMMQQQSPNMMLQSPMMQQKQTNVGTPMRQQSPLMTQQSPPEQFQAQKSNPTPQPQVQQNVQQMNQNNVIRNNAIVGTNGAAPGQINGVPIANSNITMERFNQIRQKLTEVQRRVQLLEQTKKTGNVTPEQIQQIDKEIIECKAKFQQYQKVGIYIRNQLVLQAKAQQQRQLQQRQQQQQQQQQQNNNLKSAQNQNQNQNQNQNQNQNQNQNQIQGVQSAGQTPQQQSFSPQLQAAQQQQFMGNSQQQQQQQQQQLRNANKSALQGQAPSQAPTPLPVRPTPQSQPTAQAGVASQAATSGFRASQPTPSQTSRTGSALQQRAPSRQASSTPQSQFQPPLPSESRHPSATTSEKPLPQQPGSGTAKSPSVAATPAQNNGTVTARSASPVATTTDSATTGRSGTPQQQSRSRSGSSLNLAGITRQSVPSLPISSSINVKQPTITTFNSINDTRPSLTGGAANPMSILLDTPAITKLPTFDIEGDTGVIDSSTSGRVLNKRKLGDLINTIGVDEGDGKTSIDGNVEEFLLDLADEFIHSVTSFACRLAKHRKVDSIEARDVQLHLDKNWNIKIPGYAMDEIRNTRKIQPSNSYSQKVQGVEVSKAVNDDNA
UniProt A0A1D8PSS1: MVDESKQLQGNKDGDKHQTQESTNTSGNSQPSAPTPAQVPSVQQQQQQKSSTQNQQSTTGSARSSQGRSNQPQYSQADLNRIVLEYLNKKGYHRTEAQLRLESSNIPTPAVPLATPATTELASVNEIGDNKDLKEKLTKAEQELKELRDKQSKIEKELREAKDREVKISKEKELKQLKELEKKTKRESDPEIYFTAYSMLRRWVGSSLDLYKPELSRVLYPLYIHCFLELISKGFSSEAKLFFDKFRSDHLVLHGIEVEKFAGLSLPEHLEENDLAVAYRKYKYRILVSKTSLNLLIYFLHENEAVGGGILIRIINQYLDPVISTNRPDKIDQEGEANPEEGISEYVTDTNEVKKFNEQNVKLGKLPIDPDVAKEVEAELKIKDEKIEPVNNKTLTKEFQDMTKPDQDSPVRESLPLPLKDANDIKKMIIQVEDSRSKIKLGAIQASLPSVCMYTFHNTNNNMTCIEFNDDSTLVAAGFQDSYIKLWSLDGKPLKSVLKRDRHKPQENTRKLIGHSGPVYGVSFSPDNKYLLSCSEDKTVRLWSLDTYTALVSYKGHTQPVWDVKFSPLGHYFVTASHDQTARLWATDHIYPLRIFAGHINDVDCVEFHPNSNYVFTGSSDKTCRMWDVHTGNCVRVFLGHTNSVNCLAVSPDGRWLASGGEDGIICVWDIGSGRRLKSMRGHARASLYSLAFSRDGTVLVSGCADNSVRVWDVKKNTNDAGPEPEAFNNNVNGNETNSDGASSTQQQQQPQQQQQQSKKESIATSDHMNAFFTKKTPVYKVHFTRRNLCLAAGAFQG

Assays:
[1] = biological target: 3xFLAG-tagged TAF12L (C. albicans); test: affinity purification with mass spectrometry; anti-FLAG M2 affinity agarose on cell lysate in H350 buffer (25mM HEPES-KOH pH 7.5, 350mM KCl), 4°C, eluted with 3xFLAG peptide; MudPIT; untagged SN87 as control
TAF11-TAP (C. albicans) = biological target: T1, TAF11-TAP (C. albicans) (UniProt Q59SU6); test: affinity purification with mass spectrometry; two-step TAP purification: IgG-Sepharose in TAP extraction buffer (350mM NaCl), TEV cleavage, calmodulin-Sepharose, EGTA elution; MudPIT; untagged SN87 as control
T1 sequence: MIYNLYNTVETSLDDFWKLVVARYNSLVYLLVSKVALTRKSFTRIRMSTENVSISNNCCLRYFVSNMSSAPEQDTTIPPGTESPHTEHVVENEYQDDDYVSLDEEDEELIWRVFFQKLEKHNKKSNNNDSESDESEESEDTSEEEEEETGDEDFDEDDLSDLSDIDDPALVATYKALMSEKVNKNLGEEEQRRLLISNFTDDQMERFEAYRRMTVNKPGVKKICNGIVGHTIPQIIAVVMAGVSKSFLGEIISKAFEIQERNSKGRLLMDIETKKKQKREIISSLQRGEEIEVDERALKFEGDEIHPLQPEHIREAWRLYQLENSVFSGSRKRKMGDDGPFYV

TBP-TAP (C. albicans) = biological target: T2, TBP-TAP (C. albicans) (UniProt O43133); test: as above
T2 sequence: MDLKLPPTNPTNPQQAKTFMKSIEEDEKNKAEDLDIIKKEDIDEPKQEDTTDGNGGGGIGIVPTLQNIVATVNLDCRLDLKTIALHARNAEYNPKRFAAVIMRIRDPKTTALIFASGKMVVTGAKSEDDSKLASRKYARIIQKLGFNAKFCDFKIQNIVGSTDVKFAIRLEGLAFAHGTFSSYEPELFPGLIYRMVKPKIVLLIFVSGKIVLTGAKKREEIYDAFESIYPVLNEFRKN

Row | binding [1] | binding (TAF11-TAP (C. albicans)) | binding (TBP-TAP (C. albicans)) | Substance
1 | binds |  |  | TAF9 (from UniProt A0A1D8PNT2 1-231)
2 |  | no binding | no binding | TAF12L (from UniProt A0A1D8PSN1 1-750)
3 | binds |  |  | TAF5 (from UniProt A0A1D8PSS1 1-798)

These are yes or no findings as the source states them, for the method shown. In cells and extracts the contact can be indirect. These calls come from enrichment with a bait or labelling near it, and not all partners need be listed. For some of these results: A no says only that the protein was not detected with the bait.
